The list shows a part of the results.
Columns and labels:
Assay in all cases: log2 fold change, soluble protein after heating vs DMSO (PISA); higher = thermal stabilisation; K562 lysate, 10 uM; active = over 0.2 and 3.5 SD of the protein, either way, in both replicates (recomputed)
ibrutinib = compound: C=CC(=O)N1CCC[C@@H](n2nc(-c3ccc(Oc4ccccc4)cc3)c3c(N)ncnc32)C1 [ibrutinib]
How it was run: (§1)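 A 30 min treatment with 10 μM compound was applied to crude K562 extract at 1 mg/mL protein in PBS pH 7.4 with 1 mM MgCl2. Heating for 3 min spanned 48°C-58°C, after which aliquots were pooled, adjusted to 0.5% NP-40 at 4°C and spun at 21,000xg for 90 min. TMTpro 16plex LC-MS/MS of the supernatant, with channel sums equalised, gave values recorded as log-two fold change in thermal stability against solvent controls, from duplicates.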

Chains of the proteins cited; added tags and fusions are not shown. Lines headed by an entry give the natural chain unless they say otherwise; changes in a name come on top.
UniProt Q9NRD5, whole entry, looked up: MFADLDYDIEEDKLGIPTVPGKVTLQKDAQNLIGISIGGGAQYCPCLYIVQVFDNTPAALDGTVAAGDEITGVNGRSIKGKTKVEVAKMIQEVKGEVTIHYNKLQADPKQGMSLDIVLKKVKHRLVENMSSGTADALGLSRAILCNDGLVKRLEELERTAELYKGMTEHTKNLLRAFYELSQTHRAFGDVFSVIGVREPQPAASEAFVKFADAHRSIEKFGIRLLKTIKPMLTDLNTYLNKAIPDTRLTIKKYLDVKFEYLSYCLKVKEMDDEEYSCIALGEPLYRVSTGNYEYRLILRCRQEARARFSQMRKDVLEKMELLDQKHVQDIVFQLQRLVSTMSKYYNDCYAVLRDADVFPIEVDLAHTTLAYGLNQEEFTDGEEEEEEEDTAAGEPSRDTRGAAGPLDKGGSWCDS
UniProt O43164: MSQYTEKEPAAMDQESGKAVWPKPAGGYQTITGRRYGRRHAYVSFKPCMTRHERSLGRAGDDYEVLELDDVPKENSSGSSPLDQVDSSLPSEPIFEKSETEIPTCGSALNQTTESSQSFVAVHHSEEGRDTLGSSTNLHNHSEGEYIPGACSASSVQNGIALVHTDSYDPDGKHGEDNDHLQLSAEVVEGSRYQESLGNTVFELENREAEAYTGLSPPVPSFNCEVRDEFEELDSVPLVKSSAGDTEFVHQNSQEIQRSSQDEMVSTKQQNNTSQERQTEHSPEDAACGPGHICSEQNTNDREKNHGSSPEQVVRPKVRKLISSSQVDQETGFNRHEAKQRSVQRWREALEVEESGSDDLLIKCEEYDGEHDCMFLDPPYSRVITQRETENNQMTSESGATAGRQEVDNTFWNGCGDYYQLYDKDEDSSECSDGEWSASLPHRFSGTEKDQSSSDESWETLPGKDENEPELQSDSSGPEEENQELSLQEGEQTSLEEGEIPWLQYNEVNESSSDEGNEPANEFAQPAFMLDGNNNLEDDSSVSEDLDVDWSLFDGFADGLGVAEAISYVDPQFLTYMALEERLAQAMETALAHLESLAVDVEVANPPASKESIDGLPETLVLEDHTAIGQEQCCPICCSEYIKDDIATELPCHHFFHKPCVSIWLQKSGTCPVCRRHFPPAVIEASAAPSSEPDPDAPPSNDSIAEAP
UniProt Q8TEQ8: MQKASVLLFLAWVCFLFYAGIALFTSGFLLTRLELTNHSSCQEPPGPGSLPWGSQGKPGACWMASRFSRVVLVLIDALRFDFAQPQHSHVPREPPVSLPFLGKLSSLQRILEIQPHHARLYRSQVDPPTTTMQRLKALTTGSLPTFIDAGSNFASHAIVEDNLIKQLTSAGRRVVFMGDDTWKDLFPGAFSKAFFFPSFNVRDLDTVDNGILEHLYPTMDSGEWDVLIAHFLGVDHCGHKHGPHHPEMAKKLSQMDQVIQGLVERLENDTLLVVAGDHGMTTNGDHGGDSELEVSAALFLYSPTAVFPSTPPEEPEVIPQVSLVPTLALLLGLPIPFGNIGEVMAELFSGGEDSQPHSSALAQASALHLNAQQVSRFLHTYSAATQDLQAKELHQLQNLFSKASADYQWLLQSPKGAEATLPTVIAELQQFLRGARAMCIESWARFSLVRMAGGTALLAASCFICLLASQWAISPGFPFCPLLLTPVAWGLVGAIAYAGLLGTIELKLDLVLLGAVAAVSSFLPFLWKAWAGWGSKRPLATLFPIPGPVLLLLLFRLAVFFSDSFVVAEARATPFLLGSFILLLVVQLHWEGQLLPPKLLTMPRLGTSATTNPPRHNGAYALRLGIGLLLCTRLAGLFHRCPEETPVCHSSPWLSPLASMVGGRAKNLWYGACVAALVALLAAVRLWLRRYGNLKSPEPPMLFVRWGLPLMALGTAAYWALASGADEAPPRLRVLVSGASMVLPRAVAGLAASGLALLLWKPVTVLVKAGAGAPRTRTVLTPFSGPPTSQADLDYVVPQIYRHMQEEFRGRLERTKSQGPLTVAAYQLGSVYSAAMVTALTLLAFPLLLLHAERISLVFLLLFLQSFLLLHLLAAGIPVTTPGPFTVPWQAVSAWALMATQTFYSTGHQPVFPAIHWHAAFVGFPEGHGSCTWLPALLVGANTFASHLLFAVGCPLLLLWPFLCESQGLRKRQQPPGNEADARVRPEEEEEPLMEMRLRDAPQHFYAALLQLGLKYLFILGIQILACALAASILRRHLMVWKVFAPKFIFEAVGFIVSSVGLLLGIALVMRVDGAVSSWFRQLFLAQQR
UniProt P15735: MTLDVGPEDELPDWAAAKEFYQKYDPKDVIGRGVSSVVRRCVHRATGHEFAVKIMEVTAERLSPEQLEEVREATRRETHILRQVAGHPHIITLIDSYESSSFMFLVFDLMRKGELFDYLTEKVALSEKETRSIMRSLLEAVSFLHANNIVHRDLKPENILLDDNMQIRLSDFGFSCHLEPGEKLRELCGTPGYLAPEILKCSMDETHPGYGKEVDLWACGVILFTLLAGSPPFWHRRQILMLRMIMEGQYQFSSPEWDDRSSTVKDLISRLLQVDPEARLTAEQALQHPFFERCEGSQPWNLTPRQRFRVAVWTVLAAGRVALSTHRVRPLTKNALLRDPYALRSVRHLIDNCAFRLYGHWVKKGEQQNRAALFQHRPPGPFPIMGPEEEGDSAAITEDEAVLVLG
UniProt Q8WUB8: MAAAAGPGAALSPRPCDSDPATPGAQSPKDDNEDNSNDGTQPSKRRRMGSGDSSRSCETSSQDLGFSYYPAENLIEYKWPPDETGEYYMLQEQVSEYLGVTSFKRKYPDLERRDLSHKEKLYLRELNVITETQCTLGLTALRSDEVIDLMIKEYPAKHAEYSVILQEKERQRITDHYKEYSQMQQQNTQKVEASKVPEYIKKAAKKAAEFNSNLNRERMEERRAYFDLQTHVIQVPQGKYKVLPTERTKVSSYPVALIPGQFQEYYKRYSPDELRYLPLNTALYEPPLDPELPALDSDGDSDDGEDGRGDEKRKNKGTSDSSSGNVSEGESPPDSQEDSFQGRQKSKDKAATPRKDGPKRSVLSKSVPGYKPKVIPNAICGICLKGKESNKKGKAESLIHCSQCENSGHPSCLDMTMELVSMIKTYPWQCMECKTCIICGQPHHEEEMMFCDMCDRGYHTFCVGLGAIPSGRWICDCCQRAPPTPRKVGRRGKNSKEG
UniProt Q8TCD6: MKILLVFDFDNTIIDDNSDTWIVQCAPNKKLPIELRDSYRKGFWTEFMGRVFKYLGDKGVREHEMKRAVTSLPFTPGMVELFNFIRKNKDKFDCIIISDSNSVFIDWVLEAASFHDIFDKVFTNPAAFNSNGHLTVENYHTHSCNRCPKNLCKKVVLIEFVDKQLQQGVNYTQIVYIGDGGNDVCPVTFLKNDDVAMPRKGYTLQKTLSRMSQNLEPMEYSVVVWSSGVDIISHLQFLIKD
UniProt O15173: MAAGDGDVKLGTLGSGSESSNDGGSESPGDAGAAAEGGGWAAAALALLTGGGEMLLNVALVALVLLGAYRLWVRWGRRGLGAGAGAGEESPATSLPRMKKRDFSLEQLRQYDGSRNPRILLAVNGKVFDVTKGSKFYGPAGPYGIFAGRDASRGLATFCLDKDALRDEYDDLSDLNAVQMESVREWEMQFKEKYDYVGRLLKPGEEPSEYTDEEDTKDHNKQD
UniProt P00558: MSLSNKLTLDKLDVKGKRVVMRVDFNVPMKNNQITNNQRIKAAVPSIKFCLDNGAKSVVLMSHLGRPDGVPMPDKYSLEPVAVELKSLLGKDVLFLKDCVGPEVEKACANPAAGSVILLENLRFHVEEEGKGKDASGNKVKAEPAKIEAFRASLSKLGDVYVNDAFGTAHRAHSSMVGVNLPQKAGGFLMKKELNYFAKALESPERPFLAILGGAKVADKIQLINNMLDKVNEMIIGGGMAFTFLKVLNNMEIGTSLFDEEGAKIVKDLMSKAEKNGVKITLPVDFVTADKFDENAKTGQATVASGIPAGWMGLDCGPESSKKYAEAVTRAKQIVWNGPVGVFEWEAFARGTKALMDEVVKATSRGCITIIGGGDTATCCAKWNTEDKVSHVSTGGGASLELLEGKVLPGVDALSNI
UniProt Q8NCC3: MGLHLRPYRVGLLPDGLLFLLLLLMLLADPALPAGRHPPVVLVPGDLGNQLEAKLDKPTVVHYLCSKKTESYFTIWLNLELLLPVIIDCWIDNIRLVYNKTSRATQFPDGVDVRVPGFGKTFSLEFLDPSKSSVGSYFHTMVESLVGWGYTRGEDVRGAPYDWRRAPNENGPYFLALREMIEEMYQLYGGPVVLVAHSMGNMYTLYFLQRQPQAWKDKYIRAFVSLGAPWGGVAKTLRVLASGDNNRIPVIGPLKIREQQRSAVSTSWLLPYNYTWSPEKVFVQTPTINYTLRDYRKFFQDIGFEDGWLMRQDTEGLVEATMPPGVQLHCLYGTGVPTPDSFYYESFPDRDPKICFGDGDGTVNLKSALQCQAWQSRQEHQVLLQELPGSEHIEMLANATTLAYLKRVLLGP
UniProt Q5H8A4: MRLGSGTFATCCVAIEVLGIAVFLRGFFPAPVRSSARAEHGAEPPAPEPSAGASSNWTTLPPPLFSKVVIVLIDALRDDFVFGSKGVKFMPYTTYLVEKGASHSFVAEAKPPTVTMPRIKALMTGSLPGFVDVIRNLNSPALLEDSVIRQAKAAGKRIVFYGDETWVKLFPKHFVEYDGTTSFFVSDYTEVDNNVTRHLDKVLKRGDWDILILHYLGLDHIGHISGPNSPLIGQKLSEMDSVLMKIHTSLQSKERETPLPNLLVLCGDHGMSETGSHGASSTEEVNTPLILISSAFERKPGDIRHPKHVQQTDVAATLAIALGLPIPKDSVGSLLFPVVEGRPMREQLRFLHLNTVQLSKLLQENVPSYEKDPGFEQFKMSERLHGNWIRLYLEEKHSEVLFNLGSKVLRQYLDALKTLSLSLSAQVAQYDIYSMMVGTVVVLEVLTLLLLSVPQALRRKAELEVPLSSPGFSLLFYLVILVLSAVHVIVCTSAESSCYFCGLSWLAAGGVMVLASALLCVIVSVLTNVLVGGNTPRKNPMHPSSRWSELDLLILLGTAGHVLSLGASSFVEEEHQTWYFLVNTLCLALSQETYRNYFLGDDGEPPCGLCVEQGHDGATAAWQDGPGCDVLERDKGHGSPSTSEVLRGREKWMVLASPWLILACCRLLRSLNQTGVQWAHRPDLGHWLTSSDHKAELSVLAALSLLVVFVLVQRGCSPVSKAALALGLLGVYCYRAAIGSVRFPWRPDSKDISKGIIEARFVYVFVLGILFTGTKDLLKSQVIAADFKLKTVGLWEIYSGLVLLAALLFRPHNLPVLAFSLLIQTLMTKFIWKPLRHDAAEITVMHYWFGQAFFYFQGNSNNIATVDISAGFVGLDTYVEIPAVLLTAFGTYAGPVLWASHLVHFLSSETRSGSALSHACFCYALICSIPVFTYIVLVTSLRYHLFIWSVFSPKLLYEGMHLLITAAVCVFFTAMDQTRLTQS
UniProt P35232: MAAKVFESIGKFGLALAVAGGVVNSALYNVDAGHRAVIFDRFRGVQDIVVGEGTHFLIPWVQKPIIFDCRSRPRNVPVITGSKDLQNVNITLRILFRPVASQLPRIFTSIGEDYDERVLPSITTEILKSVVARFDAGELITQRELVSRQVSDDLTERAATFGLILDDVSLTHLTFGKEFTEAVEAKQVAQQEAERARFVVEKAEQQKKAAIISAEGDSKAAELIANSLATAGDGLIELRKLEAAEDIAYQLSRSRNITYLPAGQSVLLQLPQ
UniProt Q8NEB9, whole entry, looked up: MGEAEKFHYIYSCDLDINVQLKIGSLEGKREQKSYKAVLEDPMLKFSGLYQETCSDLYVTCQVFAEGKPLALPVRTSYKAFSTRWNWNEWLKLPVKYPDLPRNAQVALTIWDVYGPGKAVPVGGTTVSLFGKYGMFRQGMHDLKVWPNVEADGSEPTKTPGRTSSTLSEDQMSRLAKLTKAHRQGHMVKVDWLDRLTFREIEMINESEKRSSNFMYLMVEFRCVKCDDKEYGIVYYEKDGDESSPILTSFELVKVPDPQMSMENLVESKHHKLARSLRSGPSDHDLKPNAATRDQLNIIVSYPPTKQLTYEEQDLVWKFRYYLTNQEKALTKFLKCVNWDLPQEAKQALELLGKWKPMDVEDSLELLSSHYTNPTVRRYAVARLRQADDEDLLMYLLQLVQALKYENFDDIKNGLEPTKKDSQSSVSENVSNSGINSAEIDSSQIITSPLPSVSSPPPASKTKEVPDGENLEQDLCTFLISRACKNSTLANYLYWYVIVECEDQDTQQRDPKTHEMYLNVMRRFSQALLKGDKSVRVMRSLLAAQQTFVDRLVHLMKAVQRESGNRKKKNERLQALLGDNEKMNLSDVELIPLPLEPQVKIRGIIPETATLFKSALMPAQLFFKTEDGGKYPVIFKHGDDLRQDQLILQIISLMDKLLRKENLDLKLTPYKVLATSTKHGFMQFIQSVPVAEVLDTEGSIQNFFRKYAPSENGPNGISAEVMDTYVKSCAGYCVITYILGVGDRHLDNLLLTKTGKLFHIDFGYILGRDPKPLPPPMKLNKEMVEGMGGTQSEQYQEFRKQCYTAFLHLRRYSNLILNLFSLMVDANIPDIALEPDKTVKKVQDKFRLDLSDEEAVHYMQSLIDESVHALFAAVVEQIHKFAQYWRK

[1] = compound: CC(=O)c1cnc2ccc(-c3cc(Cl)c(O)c(Cl)c3)nc2c1N[C@H]1CC[C@H](CN(C)C)CC1
How it was run: as §1

ralimetinib = compound: CC(C)(C)Cn1c(N)nc2ccc(-c3[nH]c(C(C)(C)C)nc3-c3ccc(F)cc3)nc21 [ralimetinib]
How it was run: as §1

[2] = compound: CC(C)(O)CC(=O)NCCn1ccc2ncnc(Nc3ccc(Oc4cccc(C(F)(F)F)c4)c(Cl)c3)c21
How it was run: as §1

[3] = compound: CC(C)C1=C2N=C(C=C(N2N=C1)NCC3=CC=CC=C3)NCCCCCCN
How it was run: as §1

[4] = compound: CC1=C(C(CC(=O)N1)C2=CC=C(C=C2)C(F)(F)F)C(=O)NC3=C(C=C4C(=C3)C=NN4)F
How it was run: as §1

[5] = compound: CC1=C(C2=C(C=C1)C(=O)C3=CC=CC=C3N2CCCN)C
How it was run: as §1

[6] = compound: CC1=C(C=C(C=C1)NC(=O)C2=CC(=CC=C2)C(C)(C)C#N)NC3=CC4=C(C=C3)N=CN(C4=O)C
How it was run: as §1

[7] = compound: CC1=C(C=C(C=C1)NC(=O)C2=CC(=CC=C2)N(C)C)NC(=O)C3=CC=C(C=C3)O
How it was run: as §1

[8] = compound: CC1=CC=C(C=C1)SC2=C3C=C(SC3=CN=C2)C(=O)N
How it was run: as §1

vemurafenib = compound: CCCS(=O)(=O)Nc1ccc(F)c(C(=O)c2c[nH]c3ncc(-c4ccc(Cl)cc4)cc23)c1F [vemurafenib]
How it was run: as §1

[9] = compound: CCCS(=O)(=O)Nc1ccc(F)c(C(=O)c2c[nH]c3ncc(Cl)cc23)c1F
How it was run: as §1

barasertib = compound: CCN(CCCOc1ccc2c(Nc3cc(CC(=O)Nc4cccc(F)c4)[nH]n3)ncnc2c1)CCOP(=O)(O)O [barasertib]
How it was run: as §1

[10] = compound: CC[C@@H]1C(=O)N(C)c2cnc(Nc3ccc(C(=O)NC4CCN(C)CC4)cc3OC)nc2N1C1CCCC1
How it was run: as §1

volasertib = compound: CC[C@@H]1C(=O)N(C)c2cnc(Nc3ccc(C(=O)N[C@H]4CC[C@H](N5CCN(CC6CC6)CC5)CC4)cc3OC)nc2N1C(C)C [volasertib]
How it was run: as §1

[11] = compound: CCn1c(C(=O)N(C2CC2)C2CC2)cc2c3c(ncn3C)c(Nc3cc(C)n(C)n3)nc21
How it was run: as §1

[12] = compound: CCn1cc(-c2ccnc3[nH]c(-c4cccc(CN(C)C)c4)cc23)c(-c2ccc(NC(=O)N(C)C)cc2)n1
How it was run: as §1

[13] = compound: CN1CCC(CNc2ccc3ncc(-c4cccc(OC(F)(F)F)c4)n3n2)CC1
How it was run: as §1

saracatinib = compound: CN1CCN(CCOc2cc(OC3CCOCC3)c3c(Nc4c(Cl)ccc5c4OCO5)ncnc3c2)CC1 [saracatinib]
How it was run: as §1

sotrastaurin = compound: CN1CCN(c2nc(C3=C(c4c[nH]c5ccccc45)C(=O)NC3=O)c3ccccc3n2)CC1 [sotrastaurin]
How it was run: as §1

Measured: log2 fold change

PICK1 (UniProt Q9NRD5)
inactive: ibrutinib 0.017 | [1] 0.07 | ralimetinib 0.024 | [2] -0.058 | [3] 0.066 | [4] 0.033 | [5] 0 | [6] 0.013 | [7] 0.003 | [8] 0.009 | vemurafenib 0.087 | [9] 0.03 | barasertib 0.139 | [10] 0.018 | volasertib -0.014 | [11] 0.01 | [12] -0.153 | [13] 0.089 | saracatinib -0.021 | sotrastaurin -0.028

PJA2 (UniProt O43164)
inactive: ibrutinib 0.016 | [1] 0.006 | ralimetinib 0.017 | [2] -0.038 | [3] -0.068 | [4] -0.055 | [5] -0.02 | [6] 0.045 | [7] 0.013 | [8] -0.032 | vemurafenib 0.084 | [9] 0.031 | barasertib -0.055 | [10] 0.031 | volasertib -0.04 | [11] -0.039 | [12] -0.213 | [13] 0.074 | saracatinib -0.005 | sotrastaurin 0.023

PIGO (UniProt Q8TEQ8)
active: sotrastaurin -0.499
inactive: ibrutinib 0.093 | [1] 0.016 | ralimetinib -0.039 | [2] -0.013 | [3] -0.068 | [4] -0.041 | [5] -0.05 | [6] -0.1 | [7] -0.047 | [8] -0.158 | vemurafenib -0.112 | [9] 0.109 | barasertib 0.064 | [10] 0.013 | volasertib -0.069 | [11] -0.081 | [12] -0.029 | [13] -0.043 | saracatinib -0.013

PHF23 (UniProt Q9BUL5)
inactive: ibrutinib 0.003 | [1] 0.024 | ralimetinib 0.015 | [2] -0.049 | [3] 0.049 | [4] -0.023 | [5] 0.024 | [6] 0.001 | [7] 0.074 | [8] -0.009 | vemurafenib -0.03 | [9] -0.008 | barasertib -0.009 | [10] 0.025 | volasertib 0.022 | [11] -0.037 | [12] 0.073 | [13] -0.028 | saracatinib -0.009 | sotrastaurin -0.034

PIR (UniProt O00625)
inactive: ibrutinib 0.029 | [1] -0.01 | ralimetinib -0.017 | [2] 0.019 | [4] -0.034 | [5] 0.007 | [6] -0.003 | [7] 0.232 | [8] -0.022 | vemurafenib -0.023 | [9] 0.098 | barasertib -0.005 | [10] 0.025 | volasertib 0.019 | [11] -0.055 | [12] 0.205 | [13] -0.024 | saracatinib -0.006 | sotrastaurin -0.028
active: [3] 0.254

PHKG2 (UniProt P15735)
inactive: ibrutinib -0.099 | [1] 0.168 | ralimetinib 0.003 | [2] -0.011 | [3] 0.03 | [4] -0.029 | [5] -0.018 | [6] -0.018 | [7] -0.004 | [8] -0.027 | vemurafenib -0.074 | [9] -0.055 | barasertib 0.126 | [10] 0.074 | volasertib 0.073 | [11] -0.007 | [12] -0.103 | [13] 0.045 | saracatinib 0.062 | sotrastaurin -0.054

PHF10 (UniProt Q8WUB8)
inactive: ibrutinib 0.011 | [1] -0.007 | ralimetinib -0.015 | [2] 0.02 | [3] -0.005 | [4] 0.092 | [5] -0.007 | [6] 0 | [7] -0.062 | [8] 0.018 | vemurafenib 0.038 | [9] -0.01 | barasertib -0.047 | [10] -0.012 | volasertib 0.016 | [11] -0.107 | [12] -0.038 | [13] 0.029 | saracatinib -0.015 | sotrastaurin -0.013

PHOSPHO2 (UniProt Q8TCD6)
inactive: ibrutinib -0.01 | [1] 0.039 | ralimetinib 0.003 | [2] 0.035 | [3] 0.012 | [4] -0.017 | [5] 0.018 | [6] 0.006 | [7] 0.048 | [8] 0.056 | vemurafenib -0.023 | [9] -0.026 | barasertib 0.047 | [10] 0.232 | volasertib 0.019 | [11] 0.003 | [12] -0.084 | [13] 0.001 | saracatinib -0.023 | sotrastaurin 0.039

PGRMC2 isoform 2 (UniProt O15173)
inactive: ibrutinib -0.005 | [1] 0.029 | ralimetinib -0.013 | [2] 0.047 | [3] 0.003 | [4] -0.009 | [5] -0.016 | [6] -0.001 | [7] -0.009 | [8] -0.02 | vemurafenib -0.001 | [9] -0.006 | barasertib 0.001 | [10] 0.024 | volasertib 0.043 | [11] -0.034 | [12] -0.03 | [13] 0.049 | saracatinib -0.015 | sotrastaurin 0.004

PGK1 (UniProt P00558)
inactive: ibrutinib -0.002 | [1] 0.014 | ralimetinib -0.008 | [2] 0.002 | [3] -0.006 | [4] -0.035 | [5] 0.004 | [6] -0.027 | [7] -0.015 | [8] 0.004 | vemurafenib 0 | [9] -0.011 | barasertib -0.02 | [10] -0.013 | volasertib -0.006 | [11] -0.009 | [12] 0.082 | [13] -0.005 | saracatinib 0.003 | sotrastaurin -0.015

Copied from the results shown (two entries):
PHKG2 (UniProt P15735)
inactive: ibrutinib -0.099 | [1] 0.168 | ralimetinib 0.003 | [2] -0.011 | [3] 0.03 | [4] -0.029 | [5] -0.018 | [6] -0.018 | [7] -0.004 | [8] -0.027 | vemurafenib -0.074 | [9] -0.055 | barasertib 0.126 | [10] 0.074 | volasertib 0.073 | [11] -0.007 | [12] -0.103 | [13] 0.045 | saracatinib 0.062 | sotrastaurin -0.054

PHF10 (UniProt Q8WUB8)
inactive: ibrutinib 0.011 | [1] -0.007 | ralimetinib -0.015 | [2] 0.02 | [3] -0.005 | [4] 0.092 | [5] -0.007 | [6] 0 | [7] -0.062 | [8] 0.018 | vemurafenib 0.038 | [9] -0.01 | barasertib -0.047 | [10] -0.012 | volasertib 0.016 | [11] -0.107 | [12] -0.038 | [13] 0.029 | saracatinib -0.015 | sotrastaurin -0.013

Carrying on.

PLA2G15 (UniProt Q8NCC3)
inactive: ibrutinib 0.051 | [1] 0.013 | ralimetinib 0.005 | [2] 0.052 | [3] -0.028 | [4] 0.001 | [5] -0.001 | [6] 0.036 | [7] 0.027 | [8] -0.01 | vemurafenib -0.047 | [9] -0.023 | barasertib -0.011 | [10] 0.018 | volasertib -0.005 | [11] 0.041 | [12] -0.009 | [13] 0.011 | saracatinib 0.001 | sotrastaurin 0.021

PIGG (UniProt Q5H8A4)
inactive: ibrutinib -0.014 | [1] -0.002 | ralimetinib 0.066 | [2] -0.069 | [3] 0.044 | [4] 0.038 | [5] -0.032 | [6] 0.059 | [7] -0.018 | [8] -0.003 | vemurafenib -0.096 | [9] 0.042 | barasertib 0.028 | [10] -0.012 | volasertib -0.028 | [11] -0.013 | [12] 0.156 | [13] -0.094 | saracatinib 0.003 | sotrastaurin 0.03

PI4KA (UniProt P42356)
inactive: ibrutinib 0.012 | [1] 0.119 | ralimetinib 0.011 | [2] -0.073 | [3] -0.045 | [4] 0 | [5] -0.039 | [6] 0.032 | [7] 0.04 | [8] -0.002 | vemurafenib 0.005 | [9] 0.014 | barasertib 0 | [10] 0.007 | volasertib -0.064 | [11] 0.019 | [12] -0.069 | [13] 0.164 | saracatinib 0.016 | sotrastaurin 0.056

PHB (UniProt P35232)
inactive: ibrutinib 0.012 | [1] -0.003 | ralimetinib 0.004 | [2] 0.026 | [3] 0.016 | [4] -0.021 | [5] 0.013 | [6] -0.007 | [7] -0.025 | [8] 0.015 | vemurafenib -0.047 | [9] 0.021 | barasertib 0.129 | [10] -0.025 | volasertib 0.036 | [11] 0.014 | [12] -0.037 | [13] -0.083 | saracatinib -0.038 | sotrastaurin -0.015

PIK3C3 (UniProt Q8NEB9)
inactive: ibrutinib -0.056 | [1] -0.021 | ralimetinib -0.023 | [2] -0.096 | [3] 0.015 | [4] -0.032 | [5] -0.015 | [6] -0.002 | [7] -0.011 | [8] -0.056 | vemurafenib 0.032 | [9] 0.019 | barasertib -0.012 | [10] 0.098 | volasertib -0.025 | [11] -0.075 | [12] -0.226 | [13] 0.121 | saracatinib 0.008 | sotrastaurin 0.007

PIEZO1 (UniProt Q92508)
inactive: ibrutinib 0.007 | [1] 0.017 | ralimetinib 0.034 | [2] -0.053 | [3] -0.017 | [4] -0.043 | [5] -0.037 | [6] 0.016 | [7] -0.001 | [8] -0.012 | vemurafenib -0.001 | [9] 0.008 | barasertib -0.014 | [10] -0.001 | volasertib 0.022 | [11] 0.011 | [12] -0.053 | [13] 0.036 | saracatinib -0.022 | sotrastaurin 0.024
